Data as given in PubChem BioAssay AID504791 (Drosophila RNAi Screening Center, 2011).

- Aim: 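Genes of the fly required for silencing by miRNA, siRNA or endo-siRNA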 (primary screen)
- Cells: Drosophila S2-derived reporter cells
- Knock-down reagent: long dsRNA against Drosophila genes, about 150-250 ng dsRNA per well (siRNA assay); about 80-120 ng (miRNA assay)
- Duration: about 5 days (siRNA assay); about 4 days (miRNA assay)
- Treatment: copper sulfate induction of reporters: 25 µM (siRNA assay); 200 mM stated (miRNA assay), 1-2 days before reading
- Read-out: 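Dual luciferase assay: Renilla to firefly signal ratio in each well, scaled to the mean ratio of its plate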
- Call rule: 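a well was a first-pass pick when its plate-scaled ratio rose above 1.5 (siRNA assay) or 1.6 (miRNA assay), or dropped below 0.6; a gene counted only if two separate dsRNAs agreed on retest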
The screen tested about 23,000 reagents; this is an unselected part of those with a known target gene and a result. Of all reagents, 199 (0.86%) are marked active. 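Plate-scaled ratios behind the calls are not deposited; printed light signals are raw; many rows marked increased or decreased are still called inactive.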 A plus sign joins genes that one reagent is predicted to hit. Further read-outs or replicates are left out here. Not stated in the record: the direction of the score.

target gene | dsRNA | stable siRNA reporter change | miRNA reporter change | stable assay Renilla, run 1 (luminescence) | Call
CG17105 (GeneID 34466) | DRSC02574 | – | – | 7022 | inactive
RpS3A (GeneID 43768) | DRSC17168 | – | – | 4843 | inactive
WASp (GeneID 43402) | DRSC15032 | – | – | 7552 | inactive
prod (GeneID 37187) | DRSC07667 | – | – | 9641 | inactive
CG34460 (GeneID 5740316) | DRSC06974 | – | – | 6511 | inactive
ND-13A (GeneID 33744) | DRSC03110 | – | – | 7656 | inactive
CG11123 (GeneID 35664) | DRSC06040 | – | – | 5843 | inactive
Cpr65Aw (GeneID 38706) | DRSC08794 | – | – | 4767 | inactive
lmgA + lmgB | DRSC03566 | – | – | 6527 | inactive
CG9119 (GeneID 38124) | DRSC08620 | – | – | 12206 | inactive
Roc1a (GeneID 31014) | DRSC18483 | – | – | 6758 | inactive
phtm (GeneID 32857) | DRSC20237 | – | – | 6255 | inactive
Not10 (GeneID 41552) | DRSC14129 | – | – | 7187 | inactive
CG32815 (GeneID 318224) | DRSC18177 | – | – | 5954 | inactive
Jarid2 (GeneID 39103) | DRSC10372 | – | – | 8148 | inactive
CG2145 (GeneID 32027) | DRSC19835 | – | – | 8707 | inactive
CdGAPr (GeneID 35267) | DRSC03289 | – | – | 6838 | inactive
CG15772 (GeneID 31498) | DRSC18078 | – | – | 5159 | inactive
ninaC (GeneID 34012) | DRSC03579 | – | – | 34910 | inactive
Ace (GeneID 41625) | DRSC12959 | – | – | 5012 | inactive
Ace (GeneID 41625) | DRSC14100 | – | – | 9731 | inactive
CG30403 (GeneID 246595) | DRSC03889 | – | – | 2800 | inactive
CG18649 (GeneID 39636) | DRSC10334 | – | reporter ratio lowered past the hit cutoff | 7094 | inactive
CG15073 (GeneID 37155) | DRSC06506 | – | – | 5254 | inactive
ATP8 (retired record) (GeneID 192468) | DRSC21277 | – | – | 5587 | inactive
dpr5 (GeneID 41381) | DRSC15766 | – | – | 7192 | inactive
CG17233 (GeneID 40220) | DRSC10259 | – | – | 6135 | inactive
CG14668 (GeneID 40646) | DRSC12254 | – | – | 6863 | inactive
CG33460 (GeneID 3885588) | DRSC05570 | – | – | 7142 | inactive
CG6276 (GeneID 41855) | DRSC16007 | – | – | 7715 | inactive
swaPsi (GeneID 3771807) | DRSC21685 | – | – | 8281 | inactive
CG1545 (GeneID 32036) | DRSC21532 | – | – | 10337 | inactive
mRpS18C (GeneID 43609) | DRSC16538 | – | – | 6294 | inactive
CG8673 (GeneID 34105) | DRSC03105 | – | – | 7408 | inactive
CG13616 (GeneID 42917) | DRSC14619 | – | – | 7674 | inactive
Amun (GeneID 32123) | DRSC19847 | – | – | 3899 | inactive

Copied from the listing, 5 entries:
target gene | dsRNA | stable siRNA reporter change | miRNA reporter change | stable assay Renilla, run 1 (luminescence) | Call
prod (GeneID 37187) | DRSC07667 | – | – | 9641 | inactive
CG34460 (GeneID 5740316) | DRSC06974 | – | – | 6511 | inactive
ND-13A (GeneID 33744) | DRSC03110 | – | – | 7656 | inactive
CG11123 (GeneID 35664) | DRSC06040 | – | – | 5843 | inactive
Cpr65Aw (GeneID 38706) | DRSC08794 | – | – | 4767 | inactive

The list goes on:
target gene | dsRNA | stable siRNA reporter change | miRNA reporter change | stable assay Renilla, run 1 (luminescence) | Call
ATPsynO (GeneID 41845) | DRSC16780 | – | – | 7947 | inactive
Tim10 + CG42497 | DRSC04664 | – | – | 11464 | inactive
CG31075 (GeneID 43244) | DRSC16016 | – | – | 6763 | inactive
CG12659 (GeneID 50403) | DRSC17862 | – | – | 5579 | inactive
Jhbp16 (GeneID 42552) | DRSC15039 | – | – | 6856 | inactive
CG1674 (GeneID 43780) | DRSC17142 | – | – | 7347 | inactive
Pex12 (GeneID 33256) | DRSC00622 | – | – | 7649 | inactive
CG9467 (GeneID 41207) | DRSC16498 | – | – | 8508 | inactive
Prp40 (GeneID 33513) | DRSC00612 | – | – | 26581 | inactive
CG15912 (GeneID 31385) | DRSC18105 | – | – | 6362 | inactive
mu2 (GeneID 38257) | DRSC08726 | – | – | 8131 | inactive
mu2 (GeneID 38257) | DRSC21534 | – | – | 10050 | inactive
CG31051 (GeneID 261634) | DRSC15034 | reporter ratio lowered past the hit cutoff | – | 5276 | inactive
CG43707 (GeneID 33601) | DRSC00280 | – | – | 6114 | inactive
CG43707 (GeneID 33601) | DRSC22869 | – | – | 7002 | inactive
Naa35 (GeneID 37866) | DRSC04447 | – | – | 1.62e5 | inactive
elav (GeneID 31000) | DRSC18772 | – | – | 8820 | inactive
CG7741 (GeneID 36208) | DRSC07035 | – | – | 5971 | inactive
tho2 (GeneID 326153) | DRSC00646 | – | – | 10906 | inactive
CG9582 (GeneID 34230) | DRSC03267 | – | – | 7026 | inactive
CG17191 (GeneID 43249) | DRSC15185 | – | – | 6046 | inactive
